# Data published in PubChem BioAssay AID445 (National Center for Advancing Translational Sciences (NCATS), 2006).
# This is one part of the list. Shown are side measurements of this screen, not its main read-out; they come without a call. The list favours compounds with an active or inconclusive main result. Words in brackets tell the shape of the fitted curve; partial curves, single points and poor fits give uncertain potencies.
# Assay: IkB Signaling
# Settings: ABC-DLBCL IkBa-CBG/CBR dual luciferase ratio (green luciferase fused to IkBa over red control in OCI-Ly3 lymphoma cells), 4 h
# Method in brief: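 Curves were fitted separately to fusion (green), unfused (red) and ratio luminescence, then classed by r2, magnitude and activity. Cells: OCI-Ly3, 4 h compound plus doxycycline at 37C; 10 uM MG-132 defined full response.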
# [1] = measured here: control luc red channel unless noted
# [2] = measured here: IkB-luc green channel
# [3] = measured here: control luc red channel
structure (smiles),measurement,setting,value
O=c1oc2ccccc2c(O)c1/C=N/c1ccccn1,AC50,[1],"3.16 µM [falling, full curve]"
Cn1nnnc1SCCCNCc1ccc(-c2ccc(Br)cc2)o1,AC50,[1],"15.8 µM [falling, single point]"
CCCCCn1c(=O)[nH]c2cc(C(=O)Nc3cc(OC)cc(OC)c3)ccc2c1=O,AC50,[1],"2 µM [falling, full curve]"
Cc1ccc2oc(=O)c3cc(C(=O)N4CCN(c5ccccc5)CC4)sc3c2c1,AC50,[1],"10 µM [rising, partial curve]"
O=C(CSc1nnnn1C1CCCCC1)Nc1cccc(NC(=O)c2ccco2)c1,AC50,[1],"3.16 µM [falling, partial curve]"
CCC1CN(C(=O)NCc2ccc(C)cc2)c2cc(C)ccc2O1 (stereo not drawn),AC50,[1],"7.94 µM [falling, partial curve]"
COC(=O)c1ccc(OCC2c3cc(OC)c(OC)cc3CCN2C(=O)C2CC2)cc1 (stereo not drawn),AC50,[1],"15.8 µM [falling, partial curve]"
COc1cc2nc(SCc3ccc(Cl)cc3)n3nc(CCn4nc(C)cc4C)nc3c2cc1OC,AC50,[1],"1.26 µM [rising, full curve]"
COc1cc(C(=O)NCCc2ccc3c(c2)OCCO3)ccc1OCC(=O)N1CCOCC1,AC50,[1],"3.98 µM [falling, full curve, poor fit]"
COc1cc(C(=O)Nc2nnc(S(=O)(=O)N(C)c3ccccc3)s2)cc(OC)c1OC,AC50,[1],"2.51 µM [rising, partial curve]"
O=[N+]([O-])c1ccc2cn[nH]c2c1,AC50,[1],"3.16 µM [rising, full curve]"
Cc1ccc(-c2nc3n(n2)C(c2ccccc2C)C=C(c2ccc(Cl)cc2)N3)cc1 (stereo not drawn),AC50,[1],"12.6 µM [falling, partial curve]"
COc1cc(C(=O)NCC(c2ccc(N(C)C)cc2)N2CCc3ccccc32)cc(OC)c1OC (stereo not drawn),AC50,[1],"15.8 µM [falling, partial curve]"
COc1cc(OC)cc(-c2nc3nc(C)c(CCC(=O)O)c(C)n3n2)c1,AC50,[1],"7.94 µM [falling, full curve, poor fit]"
COc1cccc(Nc2ncc3ncc(=O)n(C[C@H]4CCCO4)c3n2)c1,AC50,[2],"3.98 µM [falling, partial curve]"
same,AC50,[3],"3.98 µM [falling, partial curve]"
COc1ccc(CNC(=O)c2cc3c(=O)[nH]c4ccc(C)cc4c3s2)c(OC)c1,AC50,[1],"0.126 µM [falling, full curve, poor fit]"
Cc1ccn2c(Nc3ccc(F)cc3)c(-c3ccc(C)o3)nc2c1,AC50,[1],"20 µM [falling, partial curve]"
O=C(CSc1ncc(CO)n1Cc1ccccc1)Nc1nc2ccccc2s1,AC50,[1],"20 µM [falling, single point]"
Oc1ccccc1-c1nnc(COc2ccc(Cl)cc2Cl)o1,AC50,[1],"12.6 µM [falling, partial curve]"
COc1cc(CN(C(=O)COc2ccc(Br)cc2)c2ccccn2)cc(OC)c1OC,AC50,[1],"15.8 µM [falling, single point]"
O=C(Nc1ccc(-c2cc(C(F)(F)F)nn2-c2ccccc2)cc1)c1cccc(F)c1,AC50,[1],"10 µM [falling, partial curve]"
CCOC(=O)c1c(NC(=O)c2cc(CC)on2)sc(C)c1C,AC50,[1],"1 µM [rising, full curve]"
O=c1cc(CSc2ncn[nH]2)[nH]c2c(Cl)cccc12,AC50,[1],"0.398 µM [falling, partial curve]"
COc1ccc(OC)c(Nc2nc(-c3ccc(C)cc3)nc3ccccc23)c1,AC50,[1],"0.794 µM [falling, full curve, poor fit]"
O=C(CC1N=C2c3ccccc3N=C(SCc3ccc(Cl)cc3)N2C1=O)NCCc1ccccc1 (stereo not drawn),AC50,[1],"39.8 µM [falling, single point]"
CCOc1ccc(C2c3c(-c4ccc(C)cc4)n[nH]c3C(=O)N2c2ccc(Cl)cc2)cc1 (stereo not drawn),AC50,[1],"39.8 µM [falling, single point]"
CC1CCCN(C(=O)Cn2c(=O)oc3cc(S(=O)(=O)N4CCCCC4)ccc32)C1 (stereo not drawn),AC50,[1],"25.1 µM [falling, single point]"
O=S(=O)(Nc1cccc(-c2nc3cccnc3s2)c1)c1ccc2c(c1)OCCO2,AC50,[2],"15.8 µM [falling, partial curve]"
same,AC50,[3],"7.94 µM [falling, full curve, poor fit]"
COc1cccc(NC(=O)c2sc3nc(N4CCOCC4)c4c(c3c2N)CC(C)(C)OC4)c1,AC50,[1],"10 µM [falling, partial curve]"
COc1cc(NC(=O)C(CC(C)C)NS(=O)(=O)c2ccc3c(c2)CCCC(=O)N3)cc(OC)c1 (stereo not drawn),AC50,[1],"20 µM [falling, partial curve]"
COc1ccc(CNC(=O)c2cc3c(-c4ccccc4F)nn(C)c3s2)c(OC)c1,AC50,[1],"10 µM [falling, partial curve]"
Cc1ccc(C)c(N2CCN(C(=O)c3cnc4c(-c5ccccc5)c(C)nn4c3C)CC2)c1,AC50,[1],"10 µM [falling, partial curve]"
COc1cccc(NC(=O)Cn2cc(C(=O)C3CCCCC3)c3ccccc32)c1,AC50,[1],"12.6 µM [falling, partial curve]"
CCOC(=O)c1c(NC(C)=O)c2c3c(sc2n1Cc1nc(-c2ccccc2OCC)oc1C)CCCC3,AC50,[1],"39.8 µM [falling, single point]"
COc1cccc(CNC(=O)CN2C(=O)N(c3cc(C)ccc3C)S(=O)(=O)c3ccccc32)c1OC,AC50,[1],"15.8 µM [falling, partial curve]"
Cc1ccc(C)c(CN2C(=O)c3ccccc3S(=O)c3ccc(C(=O)NCc4ccccc4Cl)cc32)c1 (stereo not drawn),AC50,[1],"15.8 µM [falling, partial curve]"
O=c1onc2cnc3ccccc3n12,AC50,[1],"25.1 µM [rising, partial curve] [measured here: IkB-luc green channel]"
COc1cc(C)c(Cl)cc1S(=O)(=O)NCCc1c(C)[nH]c2ccccc12,AC50,[1],"25.1 µM [falling, single point]"
COc1ccc2c(c1)CCc1c(C(=O)N3CCCc4ccccc43)noc1-2,AC50,[1],"7.94 µM [falling, partial curve]"
Cc1nc2c(c(C)c1CCC(=O)Nc1cccc(C(F)(F)F)c1)c(=O)n(C)c(=O)n2C,AC50,[1],"20 µM [falling, partial curve]"
CC1CCCN(S(=O)(=O)c2cc3c(cc2Cl)NC(=O)CO3)C1 (stereo not drawn),AC50,[1],"0.1 µM [falling, full curve]"
COc1ccc(C(=O)Nc2ccccc2C(=O)OCc2cc(=O)n3c4c(sc3n2)CCCC4)cc1,AC50,[1],"15.8 µM [rising, partial curve]"
COc1cc(OC)c(Nc2nc3ccc(C)cc3n3nnnc23)cc1Cl,AC50,[1],"7.94 µM [falling, partial curve]"
O=C(CCC(=O)N1CC2CCCN2c2ccccc21)NCc1ccccc1Cl (stereo not drawn),AC50,[1],"31.6 µM [falling, partial curve]"
COCCCNC(=O)c1ccc2c(c1)N=C(C)c1c(C)ccc(C)c1S2,AC50,[1],"0.251 µM [rising, full curve]"
COc1ccc(N2CCN(c3ccc(-c4nc(-c5ccccc5C)no4)cc3[N+](=O)[O-])CC2)cc1,AC50,[1],"3.98 µM [falling, single point]"
O=S(=O)(c1cccc(-c2nnc(SCc3nc4ccccc4s3)o2)c1)N1CCOCC1,AC50,[1],"1.58 µM [falling, partial curve]"
Cc1ccc(-c2nnc(Nc3ccc(Br)cc3)c3ccccc23)cc1S(=O)(=O)N1CCOCC1,AC50,[1],"2 µM [falling, partial curve]"
COc1ccc(-n2c(=O)c3sc4ccccc4c3n(CC(=O)Nc3cccc(C)c3)c2=O)cc1,AC50,[1],"5.01 µM [falling, partial curve]"
Cc1ccc(NC(=O)C(Cc2ccccc2)NS(=O)(=O)c2ccc3c(c2)oc(=O)n3C)c(Cl)c1 (stereo not drawn),AC50,[1],"25.1 µM [rising, single point]"
Cc1cccc(-n2c(SCc3cc(=O)n4ccsc4n3)nc3ccccc32)c1,AC50,[1],"20 µM [falling, partial curve]"
COc1ccccc1NC(=O)c1cc(S(=O)(=O)N(C)C2CCCCC2)ccc1F,AC50,[1],"20 µM [falling, partial curve]"
CCOC(=O)N1CCc2c(sc3c2c(=O)n(CCc2ccccc2)c(=O)n3Cc2cc(C)ccc2C)C1,AC50,[1],"10 µM [falling, partial curve]"
CCOc1ccccc1NC(=O)c1cn(C2CCCC2)c(=O)c2c1c1ccccc1n2C,AC50,[1],"7.94 µM [falling, partial curve]"
COc1ccccc1NC(=O)C1=C(C)Nc2nc(SCc3ccccc3)nn2C1c1ccccn1 (stereo not drawn),AC50,[1],"0.316 µM [falling, full curve]"
CCN(CC)S(=O)(=O)c1ccc2c(c1)N(CC(=O)NCCc1ccc(OC)c(OC)c1)C(=O)CO2,AC50,[1],"39.8 µM [falling, partial curve, poor fit]"
CC1CCCCN1C(=O)CSc1nnc(-c2c[nH]c3ccccc23)o1 (stereo not drawn),AC50,[1],"15.8 µM [falling, partial curve]"
Cc1cc(Nc2cc(F)ccc2C)nc(-n2nc(C)cc2C)n1,AC50,[1],"12.6 µM [falling, partial curve]"
COc1cc(NC(=O)Cn2nc3c(cc2=O)CC(C)CC3)cc(OC)c1OC (stereo not drawn),AC50,[1],"0.2 µM [falling, full curve, poor fit]"
CN(C)S(=O)(=O)N(CC(=O)NCCSc1ccccc1)c1ccccc1,AC50,[1],"15.8 µM [falling, partial curve]"
Cc1c(C(=O)N2CCC(C)CC2)c(S(=O)(=O)Nc2ccc(OC(F)(F)F)cc2)c(C)n1C,AC50,[1],"39.8 µM [falling, single point]"

# An excerpt of these results, bar-delimited:
structure (smiles) | measurement | setting | value
O=S(=O)(Nc1cccc(-c2nc3cccnc3s2)c1)c1ccc2c(c1)OCCO2 | AC50 | [3] | 7.94 µM [falling, full curve, poor fit]
COc1cccc(NC(=O)c2sc3nc(N4CCOCC4)c4c(c3c2N)CC(C)(C)OC4)c1 | AC50 | [1] | 10 µM [falling, partial curve]
COc1cc(NC(=O)C(CC(C)C)NS(=O)(=O)c2ccc3c(c2)CCCC(=O)N3)cc(OC)c1 (stereo not drawn) | AC50 | [1] | 20 µM [falling, partial curve]
COc1ccc(CNC(=O)c2cc3c(-c4ccccc4F)nn(C)c3s2)c(OC)c1 | AC50 | [1] | 10 µM [falling, partial curve]
Cc1ccc(C)c(N2CCN(C(=O)c3cnc4c(-c5ccccc5)c(C)nn4c3C)CC2)c1 | AC50 | [1] | 10 µM [falling, partial curve]
COc1cccc(NC(=O)Cn2cc(C(=O)C3CCCCC3)c3ccccc32)c1 | AC50 | [1] | 12.6 µM [falling, partial curve]
CCOC(=O)c1c(NC(C)=O)c2c3c(sc2n1Cc1nc(-c2ccccc2OCC)oc1C)CCCC3 | AC50 | [1] | 39.8 µM [falling, single point]
COc1cccc(CNC(=O)CN2C(=O)N(c3cc(C)ccc3C)S(=O)(=O)c3ccccc32)c1OC | AC50 | [1] | 15.8 µM [falling, partial curve]
Cc1ccc(C)c(CN2C(=O)c3ccccc3S(=O)c3ccc(C(=O)NCc4ccccc4Cl)cc32)c1 (stereo not drawn) | AC50 | [1] | 15.8 µM [falling, partial curve]
O=c1onc2cnc3ccccc3n12 | AC50 | [1] | 25.1 µM [rising, partial curve] [measured here: IkB-luc green channel]
COc1cc(C)c(Cl)cc1S(=O)(=O)NCCc1c(C)[nH]c2ccccc12 | AC50 | [1] | 25.1 µM [falling, single point]
COc1ccc2c(c1)CCc1c(C(=O)N3CCCc4ccccc43)noc1-2 | AC50 | [1] | 7.94 µM [falling, partial curve]
Cc1nc2c(c(C)c1CCC(=O)Nc1cccc(C(F)(F)F)c1)c(=O)n(C)c(=O)n2C | AC50 | [1] | 20 µM [falling, partial curve]
CC1CCCN(S(=O)(=O)c2cc3c(cc2Cl)NC(=O)CO3)C1 (stereo not drawn) | AC50 | [1] | 0.1 µM [falling, full curve]
COc1ccc(C(=O)Nc2ccccc2C(=O)OCc2cc(=O)n3c4c(sc3n2)CCCC4)cc1 | AC50 | [1] | 15.8 µM [rising, partial curve]
COc1cc(OC)c(Nc2nc3ccc(C)cc3n3nnnc23)cc1Cl | AC50 | [1] | 7.94 µM [falling, partial curve]
O=C(CCC(=O)N1CC2CCCN2c2ccccc21)NCc1ccccc1Cl (stereo not drawn) | AC50 | [1] | 31.6 µM [falling, partial curve]
COCCCNC(=O)c1ccc2c(c1)N=C(C)c1c(C)ccc(C)c1S2 | AC50 | [1] | 0.251 µM [rising, full curve]
COc1ccc(N2CCN(c3ccc(-c4nc(-c5ccccc5C)no4)cc3[N+](=O)[O-])CC2)cc1 | AC50 | [1] | 3.98 µM [falling, single point]
O=S(=O)(c1cccc(-c2nnc(SCc3nc4ccccc4s3)o2)c1)N1CCOCC1 | AC50 | [1] | 1.58 µM [falling, partial curve]
